Test results from patent US20210190799A1, “METHOD FOR DIAGNOSING LIVER DISEASES AND METHOD FOR SCREENING THERAPEUTIC AGENT FOR LIVER DISEASES USING CHANGES IN EXPRESSION OF TM4SF5 PROTEIN” (SEOUL NATIONAL UNIVERSITY R&DB FOUNDATION, priority 2017, published 2021).
These are yes or no findings as the source states them, for the method shown. In cells and extracts the contact can be indirect. Some results given as binding are weak or reduced against the parent protein; the word gives no strength. For some of these results: Sequences can lack the tags named with a protein.

Sequences of proteins named here, by UniProt entry; tags and fusion partners are left off. A change or cut given only in a name is not applied to a line headed by its entry.
UniProt P30825: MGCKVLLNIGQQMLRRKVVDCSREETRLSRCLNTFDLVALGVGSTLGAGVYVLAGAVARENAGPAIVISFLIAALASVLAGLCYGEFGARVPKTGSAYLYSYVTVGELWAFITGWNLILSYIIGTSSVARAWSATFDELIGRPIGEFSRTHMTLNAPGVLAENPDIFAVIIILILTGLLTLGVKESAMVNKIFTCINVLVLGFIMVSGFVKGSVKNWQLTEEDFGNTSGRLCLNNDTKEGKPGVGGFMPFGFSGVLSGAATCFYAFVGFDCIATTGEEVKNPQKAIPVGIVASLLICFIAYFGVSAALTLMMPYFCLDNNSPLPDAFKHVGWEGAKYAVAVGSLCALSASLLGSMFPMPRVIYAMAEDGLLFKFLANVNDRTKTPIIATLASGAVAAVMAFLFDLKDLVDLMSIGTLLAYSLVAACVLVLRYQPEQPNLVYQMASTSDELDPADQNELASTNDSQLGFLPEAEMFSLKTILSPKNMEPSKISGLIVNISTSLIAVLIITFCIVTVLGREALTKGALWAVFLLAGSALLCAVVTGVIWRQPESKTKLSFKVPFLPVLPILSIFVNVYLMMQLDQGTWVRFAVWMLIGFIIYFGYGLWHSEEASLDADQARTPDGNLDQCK
UniProt O14894: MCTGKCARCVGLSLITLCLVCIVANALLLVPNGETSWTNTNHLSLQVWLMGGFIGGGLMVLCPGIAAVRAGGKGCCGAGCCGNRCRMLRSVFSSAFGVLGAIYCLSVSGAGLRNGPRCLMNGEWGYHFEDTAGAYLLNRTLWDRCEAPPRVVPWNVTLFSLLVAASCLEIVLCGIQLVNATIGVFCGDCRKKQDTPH

Legend:
[1] = target: T1, SLC38A9 protein labeled with HA tag (UniProt Q8NBW4); assay: streptavidin-bead pull-down from HEK293T lysate, Western blot with anti-HA
T1 sequence (looked up): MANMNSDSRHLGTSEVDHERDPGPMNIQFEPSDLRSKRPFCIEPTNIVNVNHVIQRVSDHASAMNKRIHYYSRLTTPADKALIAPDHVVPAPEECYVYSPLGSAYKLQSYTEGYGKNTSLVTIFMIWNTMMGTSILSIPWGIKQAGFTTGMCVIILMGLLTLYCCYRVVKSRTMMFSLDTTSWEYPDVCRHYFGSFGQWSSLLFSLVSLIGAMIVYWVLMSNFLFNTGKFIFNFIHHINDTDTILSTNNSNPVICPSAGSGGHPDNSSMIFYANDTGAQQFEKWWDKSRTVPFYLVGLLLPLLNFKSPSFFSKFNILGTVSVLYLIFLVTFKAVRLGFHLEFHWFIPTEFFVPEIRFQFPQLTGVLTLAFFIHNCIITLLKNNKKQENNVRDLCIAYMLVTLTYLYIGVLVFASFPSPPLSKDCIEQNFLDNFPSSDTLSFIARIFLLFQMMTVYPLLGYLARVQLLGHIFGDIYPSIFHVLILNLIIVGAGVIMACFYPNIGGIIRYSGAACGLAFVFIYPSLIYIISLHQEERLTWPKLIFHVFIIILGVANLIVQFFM

[2] = target: SLC7A1 (solute carrier family 7 member 1) protein labeled with HA tag (UniProt P30825); assay: as above
[3] = target: T1, SLC38A9 protein labeled with HA tag; assay: co-precipitation, Western blot (FIG. 14C)
[4] = target: SLC7A1 (solute carrier family 7 member 1) protein labeled with HA tag (UniProt P30825); assay: co-precipitation, Western blot (FIG. 14B)

Measured: binding

TM4SF5 (transmembrane 4 L6 family member 5) protein (from UniProt O14894 1-197)
binds: all assays above
